From patent US20190374506A1, “COMPOSITIONS AND METHODS FOR TREATING CANCER” (BETH ISREAL DEACONESS MEDICAL CENTER, priority 2016, published 2019)
No constants are given. Whether binding was seen depends on the method and setting. Some binding calls cover weakened binding; strength is not graded here.

The chains behind the UniProt entries cited, without tags or fusion partners. Where a name states a change or a piece, a line headed by the entry shows the natural chain unless it says otherwise. A line that says so, or that is headed by a name, gives the form on record, which may keep a tag or linker.
UniProt P60484: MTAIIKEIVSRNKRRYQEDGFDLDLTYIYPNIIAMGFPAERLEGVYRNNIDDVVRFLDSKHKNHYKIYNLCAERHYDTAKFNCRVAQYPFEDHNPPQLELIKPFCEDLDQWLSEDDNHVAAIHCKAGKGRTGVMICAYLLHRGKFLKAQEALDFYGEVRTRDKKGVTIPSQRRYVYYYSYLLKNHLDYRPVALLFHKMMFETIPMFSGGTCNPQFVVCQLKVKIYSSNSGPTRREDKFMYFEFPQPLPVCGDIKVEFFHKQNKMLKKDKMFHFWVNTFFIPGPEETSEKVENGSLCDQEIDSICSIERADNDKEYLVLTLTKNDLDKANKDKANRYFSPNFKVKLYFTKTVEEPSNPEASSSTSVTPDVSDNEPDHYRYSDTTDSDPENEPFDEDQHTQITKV
Isoform 2 of DNA repair protein RAD50 (Q92878-2, form named): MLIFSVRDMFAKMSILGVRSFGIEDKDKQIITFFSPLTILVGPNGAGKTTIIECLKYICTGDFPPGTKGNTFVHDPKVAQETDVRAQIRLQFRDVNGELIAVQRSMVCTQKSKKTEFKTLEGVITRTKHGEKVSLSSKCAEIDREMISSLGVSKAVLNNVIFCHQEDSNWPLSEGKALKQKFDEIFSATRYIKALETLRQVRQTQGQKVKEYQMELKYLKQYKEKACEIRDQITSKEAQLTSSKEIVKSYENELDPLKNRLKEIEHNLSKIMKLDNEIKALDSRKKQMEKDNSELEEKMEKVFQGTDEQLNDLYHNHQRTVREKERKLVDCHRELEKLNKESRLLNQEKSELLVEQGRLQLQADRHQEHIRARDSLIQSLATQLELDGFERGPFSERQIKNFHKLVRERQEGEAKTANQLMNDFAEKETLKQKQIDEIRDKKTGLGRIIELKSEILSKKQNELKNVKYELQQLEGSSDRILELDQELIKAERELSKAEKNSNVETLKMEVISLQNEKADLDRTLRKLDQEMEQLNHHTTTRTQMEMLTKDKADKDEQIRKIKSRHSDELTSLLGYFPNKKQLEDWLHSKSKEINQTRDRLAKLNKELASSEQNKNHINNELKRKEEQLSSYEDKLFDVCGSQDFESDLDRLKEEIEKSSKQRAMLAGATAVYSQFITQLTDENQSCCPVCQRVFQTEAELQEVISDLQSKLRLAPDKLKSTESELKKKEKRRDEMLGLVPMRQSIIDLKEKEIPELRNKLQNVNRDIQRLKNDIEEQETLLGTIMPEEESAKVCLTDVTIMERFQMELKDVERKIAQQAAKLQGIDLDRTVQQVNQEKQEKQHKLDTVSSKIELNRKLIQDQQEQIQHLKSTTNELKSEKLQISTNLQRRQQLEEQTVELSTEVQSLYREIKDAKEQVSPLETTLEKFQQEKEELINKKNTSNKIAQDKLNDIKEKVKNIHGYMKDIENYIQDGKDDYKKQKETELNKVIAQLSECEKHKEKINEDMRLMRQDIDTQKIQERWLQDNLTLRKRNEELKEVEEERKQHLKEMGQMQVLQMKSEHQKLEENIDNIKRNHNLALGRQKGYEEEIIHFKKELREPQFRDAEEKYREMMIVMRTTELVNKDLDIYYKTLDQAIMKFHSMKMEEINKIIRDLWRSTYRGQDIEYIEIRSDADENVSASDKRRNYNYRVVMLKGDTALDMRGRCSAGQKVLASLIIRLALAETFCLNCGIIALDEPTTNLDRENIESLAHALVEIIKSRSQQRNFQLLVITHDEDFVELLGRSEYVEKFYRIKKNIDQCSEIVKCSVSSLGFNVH
Isoform p135 of Dynactin subunit 1 (Q14203-2, form named): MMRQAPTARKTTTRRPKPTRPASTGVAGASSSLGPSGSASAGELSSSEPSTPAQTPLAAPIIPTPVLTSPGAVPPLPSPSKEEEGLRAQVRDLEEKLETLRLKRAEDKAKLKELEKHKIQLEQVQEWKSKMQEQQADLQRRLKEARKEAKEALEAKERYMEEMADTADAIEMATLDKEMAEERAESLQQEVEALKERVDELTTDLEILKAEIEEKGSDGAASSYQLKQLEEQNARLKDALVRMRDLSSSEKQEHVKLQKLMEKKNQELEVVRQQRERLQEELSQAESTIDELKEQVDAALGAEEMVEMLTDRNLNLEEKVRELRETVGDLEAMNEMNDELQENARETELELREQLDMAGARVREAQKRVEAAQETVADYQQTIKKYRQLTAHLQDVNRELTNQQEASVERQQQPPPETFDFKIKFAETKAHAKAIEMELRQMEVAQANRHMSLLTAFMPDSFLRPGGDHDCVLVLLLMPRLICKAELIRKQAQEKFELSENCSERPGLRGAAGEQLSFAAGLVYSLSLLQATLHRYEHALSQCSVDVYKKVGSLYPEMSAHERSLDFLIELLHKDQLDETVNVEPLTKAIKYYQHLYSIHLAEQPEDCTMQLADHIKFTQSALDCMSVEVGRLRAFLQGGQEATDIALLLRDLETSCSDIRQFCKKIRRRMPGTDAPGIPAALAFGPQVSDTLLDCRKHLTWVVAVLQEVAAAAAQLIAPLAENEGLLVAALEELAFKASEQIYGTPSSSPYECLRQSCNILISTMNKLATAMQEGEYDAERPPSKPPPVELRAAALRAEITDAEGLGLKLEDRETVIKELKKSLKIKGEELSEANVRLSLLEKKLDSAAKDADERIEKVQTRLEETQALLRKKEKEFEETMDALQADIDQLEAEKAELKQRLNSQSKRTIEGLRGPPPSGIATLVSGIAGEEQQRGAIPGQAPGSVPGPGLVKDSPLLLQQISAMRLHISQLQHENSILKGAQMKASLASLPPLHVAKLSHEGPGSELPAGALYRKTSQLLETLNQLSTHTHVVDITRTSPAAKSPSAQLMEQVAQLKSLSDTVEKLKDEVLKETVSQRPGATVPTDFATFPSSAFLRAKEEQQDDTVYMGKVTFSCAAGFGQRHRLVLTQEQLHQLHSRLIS

Molecular target: HA-PTEN (human) (UniProt P60484)
Assay: anti-PTEN immunoprecipitation from DU145 cells transfected with HA-PTEN, SDS-PAGE, mass-spectrometric peptide sequencing of the bands (association in the precipitate)

Row | Substance | binding
1 | Isoform 2 of DNA repair protein RAD50 (from UniProt Q92878-2) | binds
2 | Isoform p135 of Dynactin subunit 1 (from UniProt Q14203-2) | binds
